This is an account of results in publication PMC9791665.

Protein sequences, listed by entry. Tags and fused reporters are not part of them. Residues count along the entry.
UniProt P27540, residues 85-465: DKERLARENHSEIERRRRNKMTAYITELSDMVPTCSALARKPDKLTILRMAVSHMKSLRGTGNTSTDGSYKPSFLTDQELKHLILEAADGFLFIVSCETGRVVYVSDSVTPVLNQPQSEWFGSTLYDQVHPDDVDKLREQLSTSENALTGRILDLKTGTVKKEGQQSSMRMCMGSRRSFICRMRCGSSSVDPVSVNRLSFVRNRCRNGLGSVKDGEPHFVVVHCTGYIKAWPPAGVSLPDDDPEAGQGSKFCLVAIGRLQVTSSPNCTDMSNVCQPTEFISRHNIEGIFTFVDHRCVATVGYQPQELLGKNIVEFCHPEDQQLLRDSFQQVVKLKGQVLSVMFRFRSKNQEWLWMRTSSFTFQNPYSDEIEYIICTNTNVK
UniProt P35869, residues 28-414: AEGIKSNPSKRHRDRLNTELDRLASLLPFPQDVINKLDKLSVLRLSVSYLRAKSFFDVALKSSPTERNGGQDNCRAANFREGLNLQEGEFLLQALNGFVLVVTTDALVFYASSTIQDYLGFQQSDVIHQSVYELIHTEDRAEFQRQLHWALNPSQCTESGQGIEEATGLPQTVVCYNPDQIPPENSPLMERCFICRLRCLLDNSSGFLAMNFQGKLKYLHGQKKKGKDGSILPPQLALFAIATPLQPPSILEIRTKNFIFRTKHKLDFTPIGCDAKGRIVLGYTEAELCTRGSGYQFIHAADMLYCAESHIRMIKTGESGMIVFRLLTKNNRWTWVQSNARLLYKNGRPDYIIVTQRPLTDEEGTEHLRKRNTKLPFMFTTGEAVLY

This assay has as its target Human ARNT (aa 85-465) (human) (UniProt P27540). As to the kind of experiment: co-expression and co-purification; AHR and ARNT co-expressed in E. coli Rosetta 2 (DE3) with 20 uM beta-naphthoflavone; purified together on Ni Sepharose, then cation exchange in buffer with 20 uM beta-naphthoflavone; beta-naphthoflavone removed by size exclusion on Superdex 200 PG; stored in 20 mM Tris pH 7.5, 300 mM NaCl, 0.5 mM TCEP.

Results are given in words; binding and its absence hold for the method and conditions named. Some results given as binding are weak or reduced against the parent protein; the word gives no strength.

For “Human AHR (aa 28-414) (from UniProt P35869 28-414) (domain or fragment)”, the binding entry is on record as “binds”.
